Measurements from the M2OR odorant receptor database.
Where a chain is given by its changes, count along the chain named. The entries are a selection whose mix differs from that of the whole data set. The calls were merged from several studies; some rest on single wells. This is one part of the list.

Chains of the proteins cited; added tags and fusions are not shown. A line that says so, or that is headed by a name, gives the form on record, which may keep a tag or linker.
OR2J2, as listed by the source: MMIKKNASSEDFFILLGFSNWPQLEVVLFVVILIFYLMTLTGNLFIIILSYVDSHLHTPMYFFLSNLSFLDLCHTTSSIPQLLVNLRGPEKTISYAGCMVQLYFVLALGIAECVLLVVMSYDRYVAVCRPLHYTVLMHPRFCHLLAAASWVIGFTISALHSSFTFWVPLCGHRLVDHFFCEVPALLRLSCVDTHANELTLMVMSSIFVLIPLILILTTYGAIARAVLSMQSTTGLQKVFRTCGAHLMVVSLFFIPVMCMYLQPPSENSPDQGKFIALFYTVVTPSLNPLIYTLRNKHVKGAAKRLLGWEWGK

How the values were obtained:
Conditions in all cases: stereoisomer not certain
[1] = target: T1, OR2G3 (Homo sapiens) (UniProt Q8NGZ4)
T1 sequence (whole entry): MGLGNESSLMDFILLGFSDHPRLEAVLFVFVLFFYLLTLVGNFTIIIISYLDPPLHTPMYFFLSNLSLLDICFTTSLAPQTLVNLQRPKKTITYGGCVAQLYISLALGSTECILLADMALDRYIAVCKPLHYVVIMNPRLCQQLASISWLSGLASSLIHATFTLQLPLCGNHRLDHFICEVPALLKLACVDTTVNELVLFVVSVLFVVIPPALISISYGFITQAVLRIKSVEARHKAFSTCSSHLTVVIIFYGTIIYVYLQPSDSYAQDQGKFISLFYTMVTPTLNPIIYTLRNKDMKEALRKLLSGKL
Outline: (§1)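 Each entry records the cell line, G-protein, co-transfected protein and tags used. Methods varied with the source, often transient luciferase assays in mammalian cell lines. A receptor–molecule pair is called responsive (active) if the original authors judged its signal statistically different from baseline and non-responsive (inactive) otherwise.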

[2] = test system: T2, OR2G3
T2 sequence (whole entry): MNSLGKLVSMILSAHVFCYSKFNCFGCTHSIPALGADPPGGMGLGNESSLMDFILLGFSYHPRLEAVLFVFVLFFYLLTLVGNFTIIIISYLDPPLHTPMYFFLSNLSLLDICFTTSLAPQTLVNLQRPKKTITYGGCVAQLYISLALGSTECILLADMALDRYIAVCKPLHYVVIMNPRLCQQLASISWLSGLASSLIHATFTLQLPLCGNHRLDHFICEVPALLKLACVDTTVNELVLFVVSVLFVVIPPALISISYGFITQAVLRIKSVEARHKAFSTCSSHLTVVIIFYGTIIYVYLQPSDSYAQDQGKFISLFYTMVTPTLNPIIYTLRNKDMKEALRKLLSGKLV
Outline: as §1

[3] = target: T3, OR2G6 (Homo sapiens) (UniProt Q5TZ20)
T3 sequence (whole entry): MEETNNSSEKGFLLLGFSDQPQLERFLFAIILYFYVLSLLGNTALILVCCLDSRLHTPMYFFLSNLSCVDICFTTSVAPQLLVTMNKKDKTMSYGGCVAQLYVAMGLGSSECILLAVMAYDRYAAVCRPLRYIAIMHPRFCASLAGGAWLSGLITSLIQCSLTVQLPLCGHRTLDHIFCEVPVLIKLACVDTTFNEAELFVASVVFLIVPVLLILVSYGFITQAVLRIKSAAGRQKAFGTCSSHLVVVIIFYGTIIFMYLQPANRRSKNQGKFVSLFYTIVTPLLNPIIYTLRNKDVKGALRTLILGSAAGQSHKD
Outline: as §1

[4] = target: T4, OR2H1 (Homo sapiens) (UniProt Q9GZK4)
T4 sequence (whole entry): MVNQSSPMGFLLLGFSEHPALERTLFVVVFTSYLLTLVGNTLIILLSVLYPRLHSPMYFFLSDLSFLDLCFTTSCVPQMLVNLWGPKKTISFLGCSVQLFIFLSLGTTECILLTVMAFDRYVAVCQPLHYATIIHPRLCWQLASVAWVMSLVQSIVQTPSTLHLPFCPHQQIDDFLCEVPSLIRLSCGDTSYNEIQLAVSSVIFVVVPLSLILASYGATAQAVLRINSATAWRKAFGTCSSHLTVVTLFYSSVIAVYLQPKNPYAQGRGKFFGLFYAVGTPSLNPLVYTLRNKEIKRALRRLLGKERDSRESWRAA
Outline: as §1

[5] = test system: T5, OR2H2
T5 sequence (whole entry): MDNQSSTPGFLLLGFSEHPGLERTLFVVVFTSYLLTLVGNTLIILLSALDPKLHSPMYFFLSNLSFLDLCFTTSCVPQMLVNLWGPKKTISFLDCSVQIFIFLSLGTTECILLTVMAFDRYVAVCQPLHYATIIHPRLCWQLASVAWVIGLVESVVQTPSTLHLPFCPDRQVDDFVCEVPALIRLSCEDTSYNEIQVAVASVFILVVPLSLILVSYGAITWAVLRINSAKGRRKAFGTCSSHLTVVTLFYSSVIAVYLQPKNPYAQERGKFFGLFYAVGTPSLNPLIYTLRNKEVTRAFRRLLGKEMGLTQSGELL
Outline: as §1

[6] = test system: T6, OR2H2; remark: listed apart in the source
T6 sequence (whole entry): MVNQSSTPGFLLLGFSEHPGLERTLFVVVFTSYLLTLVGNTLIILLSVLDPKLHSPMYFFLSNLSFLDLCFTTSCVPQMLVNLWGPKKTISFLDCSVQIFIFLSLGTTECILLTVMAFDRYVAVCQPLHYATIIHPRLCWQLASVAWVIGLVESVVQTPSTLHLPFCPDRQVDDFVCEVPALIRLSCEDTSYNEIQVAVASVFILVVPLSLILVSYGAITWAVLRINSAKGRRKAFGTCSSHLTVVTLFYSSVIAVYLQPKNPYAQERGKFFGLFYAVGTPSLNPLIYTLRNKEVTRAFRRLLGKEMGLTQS
Outline: as §1

[7] = test system: T7, OR2J1
T7 sequence (whole entry): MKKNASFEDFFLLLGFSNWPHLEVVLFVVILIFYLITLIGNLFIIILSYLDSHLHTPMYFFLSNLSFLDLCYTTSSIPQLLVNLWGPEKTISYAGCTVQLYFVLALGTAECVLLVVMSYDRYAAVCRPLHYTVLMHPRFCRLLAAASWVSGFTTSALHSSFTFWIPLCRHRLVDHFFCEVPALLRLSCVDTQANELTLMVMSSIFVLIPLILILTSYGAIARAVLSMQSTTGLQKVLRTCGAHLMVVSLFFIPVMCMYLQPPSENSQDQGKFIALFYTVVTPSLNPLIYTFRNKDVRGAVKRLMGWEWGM
Outline: as §1

[8] = target: T8, OR2J2 (Homo sapiens) (UniProt O76002)
T8 sequence (whole entry): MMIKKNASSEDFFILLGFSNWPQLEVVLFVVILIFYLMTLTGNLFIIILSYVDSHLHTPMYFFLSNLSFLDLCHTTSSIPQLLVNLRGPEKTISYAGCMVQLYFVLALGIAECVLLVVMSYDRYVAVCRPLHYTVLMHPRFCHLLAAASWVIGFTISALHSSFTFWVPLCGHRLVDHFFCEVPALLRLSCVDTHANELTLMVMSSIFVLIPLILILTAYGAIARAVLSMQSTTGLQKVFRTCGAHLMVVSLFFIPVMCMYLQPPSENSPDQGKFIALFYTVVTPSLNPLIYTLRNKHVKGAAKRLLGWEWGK
Outline: as §1

[9] = test system: T9, OR2J2
T9 sequence (whole entry): T8 sequence (whole entry) with A218T
Outline: as §1

[10] = test system: T10, OR2J2; remark: listed apart in the source
T10 sequence (whole entry): T8 sequence (whole entry) with H74Y, A146V, A218T
Outline: as §1

Measured: odorant receptor agonist call

CCCCOC(C)=O
inactive: all assays above

CS
inactive: all assays above

CCC(C)=O
inactive: all assays above
